Source: paper PMC7466379
Construct, isoform or probe ends are uncertain for at least one entry. For part of these data: The direction of at least one scale is not stated here.

The chains behind the UniProt entries cited, without tags or fusion partners. Residues count along the entry.
UniProt P01579, 24-161: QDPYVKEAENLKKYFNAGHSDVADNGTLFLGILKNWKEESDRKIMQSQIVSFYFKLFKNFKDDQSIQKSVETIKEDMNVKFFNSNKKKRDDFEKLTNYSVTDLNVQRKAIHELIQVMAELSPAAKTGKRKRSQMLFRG
UniProt P60568, 21-153: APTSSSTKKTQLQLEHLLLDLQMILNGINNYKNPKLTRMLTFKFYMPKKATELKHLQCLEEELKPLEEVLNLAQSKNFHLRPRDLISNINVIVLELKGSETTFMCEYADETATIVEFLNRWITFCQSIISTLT

How the values were obtained:
IFN-gamma [1] = molecular target: IFN-gamma (UniProt P01579); experiment: graphene field-effect transistor, time-resolved; conditions: artificial tears, same concentration as TNF-alpha; 5'-NH2; Artificial tears (Alcon) on aptamer-modified graphene FET, 0.05% Tween 80 passivation; protein up to 500 nM; salt and temperature not stated; commercial protein; single-stranded DNA
[2] = molecular target: interleukin-002 (IL-002) (human) (UniProt P60568); experiment: graphene field-effect transistor, time-resolved; conditions: artificial tears, same concentration as TNF-alpha; 5'-NH2; Artificial tears (Alcon) on aptamer-modified graphene FET, 0.05% Tween 80 passivation; protein up to 500 nM; salt and temperature not stated; commercial protein; single-stranded DNA
IFN-gamma [3] = molecular target: IFN-gamma (UniProt P01579); experiment: graphene field-effect transistor; conditions: artificial tears, Tween 80 passivated; 5'-NH2; Artificial tears (Alcon) on aptamer-modified graphene FET, 0.05% Tween 80 passivation; protein up to 500 nM; salt and temperature not stated; commercial protein; single-stranded DNA

| Sequence | binding signal (% of TNF-alpha signal) (IFN-gamma [1]) | binding signal (% of TNF-alpha signal) [2] | Kd (IFN-gamma [3]) |
| --- | --- | --- | --- |
| TGGTGGATGGCGCAGTCGGCGACAA [TNF-alpha aptamer] | < 15 | < 15 |  |
| GGGGTTGTTTGTGTTGGGTGTTGTGT [IFN-gamma aptamer] |  |  | 7.36 nM |
